About 3,700 (7%) of roughly 53,000 sequences were called active.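 How the source made its calls: active means gene knockdowns whose robust z-score for IL-1 alpha signal is at least 2 or at most -2, so actives lie on both sides; inactive means the rest.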 The list shows a part of the results.
assay: Components of the Cytosolic LPS Sensing Pathway: Gene Identification via Genome-wide siRNA Screen; conditions: RAW264.7 macrophages, IL-1a HTRF, actives lie on both sides, screened at 100 nM (by protocol), cells primed 5 h with Pam3CSK4 first;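 further: robust z of the log signal after scaling to non-targeting control siRNA wells of the plate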
Outline: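 RAW264.7 mouse macrophages reverse-transfected with single siRNAs (100 nM final) for 48h, primed with Pam3CSK4 for 5 hours, then transfected with LipidA for 24 hour. Supernatant IL-1a read by HTRF; values normalized to negative-control median, log-transformed robust z-scores.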

Sequence	z-score
GCUCCAUUUGAGGAACAAGTT against Zfp277	inactive: -1.08
CCCUGAGAUAGGCAAUGUGTT against Tceanc2	inactive: -1.57
CCUUCAGGGUGCUUCUCUATT against Mrgpra6	inactive: -0.644
CGUACAGUGAUGAUUUUGATT against Cep162	inactive: 0.218
GGUAGACAGAGAAGAUAAATT against Slc35f5	active: -2.01
GGAUCUGGCAUUCAGAUAATT against Azin1	inactive: 0.414
GGAGUUUGGAACUUCCAACTT against Tcf21	active: 2.79
CCCUUCAGCACGAUGAAAATT against Wdr95	inactive: -0.19
GCUUGAUUUUGAAUAACACTT against Tas2r116	inactive: -0.316
CCGUUUCAGAUUCCUAUCATT against 4930524B15Rik	inactive: -0.435
GGGAAAACCUCUUCUGUGUTT against Olfr904	inactive: 0.0564
GGAAGAUUCCGACUUUAUUTT against Irs4	inactive: 0.69
GCUUAUUUAAUGCAUCAGGTT against Avil	inactive: 0.968
GGUGAUUUAUUCAGUUCAATT against Lmbrd2	inactive: -1.13
GGGAAGAGCUAGCACUGAATT against Phox2b	inactive: -1.86
CCUCACCUUAAGUGUGUCATT against Sdhaf4	inactive: -0.277
GGUGACAGAUUCUUUGAGGTT against Tti2	inactive: 0.704
GUACAUGUCGAUGGCAGUCTT against Fthl17e	inactive: 0.648
GGCUAAAGAGUCCUCGGUGTT against Serpina5	inactive: 0.594
AACAGAUCUUCUCUGGUCCTT against Klra15	active: -2.47
CCAGUGACACCUUAAAACCTT against Setbp1	inactive: -0.585
GGGAGAUUUUAGGUUUGGATT against Bhlha9	inactive: 0.217

Sequence	z-score
CCUGGGAGCCUAUUAUUCUTT against Ndufb10	inactive: -0.032
GAGGACAUGGCCAGAUACUTT against Npy	inactive: -0.502
GGACAACGGAUUUUAGGAGTT against Barhl2	inactive: 0.44
CCUCUCUAUCUCUGACAUGTT against Olfr960	inactive: 0.476
GCCCAUCACUUAUAGUGGGTT against Usf2	inactive: -0.799
GGAGCACUGUCCUUAAACATT against Cxcl16	inactive: 0.189
CCAGAUUAGGCUAAUAGAATT against Lrsam1	inactive: 0.555
CCCAUGUGCGAUGAAACUUTT against Nudt3	inactive: 0.716
CGGAGAGGAUUUCAUCGAATT against Azgp1	inactive: 0.0877
GGAAAUCAAAGAGAAAGUUTT against Rassf3	inactive: -0.748
GUGUAAAAGUGCAAAGAGATT against Klra7	inactive: -0.536
GGAACUUUUUCAGAUGCAGTT against Ndnf	inactive: 0.108
CCUGAAAGAACGGGAGUAGTT against Mab21l2	inactive: -0.415
GUGACAAAAACAUCCAAGCTT against Olfr456	inactive: -1.23
GGAGCAGUAUGAAAGGGAUTT against Trap1a	inactive: -1.35
GGUCUGUAAGCUACCUAAUTT against Mageb18	inactive: 1.28
CGUAGAGAUCAGUUCAAUGTT against Clock	inactive: -1.36
GGACUCAAGGACAAACAGUTT against Heg1	inactive: -1.38
GGAGAUCUAUUACCACGGATT against Arrb1	inactive: 0.484
GGAUAGGGCAUGGAAAUCCTT against Scnn1g	inactive: -0.589
GGACAUCGAGCUUCAGAUCTT against Dnm1l	active: 2.68
CGUACUCUUGGAGAGGAUUTT against Sva	inactive: -0.89

Sequence	z-score
GGAGACUGAAGUCCAUCAATT against Atp5c1	inactive: 0.685
GCUGGACACGGAAGGUAUATT against Igsf8	inactive: -0.595
CGACUCCGGCAUCUAUGAUTT against Cmklr1	inactive: -0.409
GGGCUGGGAGACAAAGAAATT against A130050O07Rik	inactive: 0.523
GCCCAUGGACACAUCCAGUTT against Slc8b1	inactive: -0.512
GCAAAGAUUGUUUUUGCUGTT against Oat	inactive: 0.3
CGAGGAGAUCAGCUACUUUTT against Lin7c	inactive: 0.866
CCUGCUGAAAUAUCAUAAATT against Zfp607b	inactive: 0.262
GGCAUAUCAACUGUCGUUCTT against Cyp2r1	inactive: -1.23
GGUACUUUCGGACUCAGUUTT against Ipp	inactive: -0.0605
GGGUUUCUCCAGUAUGCAUTT against Mr1	inactive: -0.335
GCUUGCAUAAAUUGCUAAATT against Xrcc4	inactive: 1.94
GCCUCUUUGAUAGCAAAAGTT against Cct6a	inactive: -0.663
GGAUAAACUUAAACAACUCTT against Tnpo2	inactive: -1.25
GGAAAAGCUGAAGGAAAAUTT against Mcmbp	inactive: 1.25
CCCUAAAAACACCUGAGAGTT against Vsig4	inactive: 0.961
GGAACAUUGGUGUUACAGCTT against Atp5j	active: 2.29
GGACCGGUGUCUAAUCAGCTT against Capn10	inactive: 1.75
GGACGAAUGCUCAGGAGGUTT against Hmcn2	inactive: 1.1
GGAACUAGGACUAAACAACTT against Lrrn2	inactive: 1.32
GGAAGUGGACGUGAAACCCTT against Btg3	inactive: 0.15
GGUGCAGACCAACAAGACATT against Gm9946	inactive: -0.445

An excerpt of these results, as a markdown table.

| Sequence | z-score |
| --- | --- |
| GGAAAUCAAAGAGAAAGUUTT against Rassf3 | inactive: -0.748 |
| GUGUAAAAGUGCAAAGAGATT against Klra7 | inactive: -0.536 |
| GGAACUUUUUCAGAUGCAGTT against Ndnf | inactive: 0.108 |
| CCUGAAAGAACGGGAGUAGTT against Mab21l2 | inactive: -0.415 |
| GUGACAAAAACAUCCAAGCTT against Olfr456 | inactive: -1.23 |
| GGAGCAGUAUGAAAGGGAUTT against Trap1a | inactive: -1.35 |
| GGUCUGUAAGCUACCUAAUTT against Mageb18 | inactive: 1.28 |
| CGUAGAGAUCAGUUCAAUGTT against Clock | inactive: -1.36 |
| GGACUCAAGGACAAACAGUTT against Heg1 | inactive: -1.38 |
| GGAGAUCUAUUACCACGGATT against Arrb1 | inactive: 0.484 |
| GGAUAGGGCAUGGAAAUCCTT against Scnn1g | inactive: -0.589 |
| GGACAUCGAGCUUCAGAUCTT against Dnm1l | active: 2.68 |
| CGUACUCUUGGAGAGGAUUTT against Sva | inactive: -0.89 |
| GCUGGACACGGAAGGUAUATT against Igsf8 | inactive: -0.595 |
| GGGCUGGGAGACAAAGAAATT against A130050O07Rik | inactive: 0.523 |
| GCCCAUGGACACAUCCAGUTT against Slc8b1 | inactive: -0.512 |
| GCAAAGAUUGUUUUUGCUGTT against Oat | inactive: 0.3 |
| CGAGGAGAUCAGCUACUUUTT against Lin7c | inactive: 0.866 |
| CCUGCUGAAAUAUCAUAAATT against Zfp607b | inactive: 0.262 |
| GGCAUAUCAACUGUCGUUCTT against Cyp2r1 | inactive: -1.23 |
| GGUACUUUCGGACUCAGUUTT against Ipp | inactive: -0.0605 |
| GGGUUUCUCCAGUAUGCAUTT against Mr1 | inactive: -0.335 |
| GCUUGCAUAAAUUGCUAAATT against Xrcc4 | inactive: 1.94 |
| GGAUAAACUUAAACAACUCTT against Tnpo2 | inactive: -1.25 |
| GGAAAAGCUGAAGGAAAAUTT against Mcmbp | inactive: 1.25 |
| CCCUAAAAACACCUGAGAGTT against Vsig4 | inactive: 0.961 |
| GGAACAUUGGUGUUACAGCTT against Atp5j | active: 2.29 |
| GGACCGGUGUCUAAUCAGCTT against Capn10 | inactive: 1.75 |
| GGACGAAUGCUCAGGAGGUTT against Hmcn2 | inactive: 1.1 |
| GGAACUAGGACUAAACAACTT against Lrrn2 | inactive: 1.32 |
| GGAAGUGGACGUGAAACCCTT against Btg3 | inactive: 0.15 |
| GGUGCAGACCAACAAGACATT against Gm9946 | inactive: -0.445 |

Next results:

Sequence	z-score
GCAAGUUAAGGAUAUCAUGTT against Katna1	inactive: 1.2
GCUUGUUCGGGAAUCUUAUTT against Olfr292	inactive: 0.116
GGUGAGACAAAGGAACAAGTT against Tmem100	inactive: -1.23
CCUAAUCAGCAAACCAGGUTT against Magee2	inactive: -1.63
GGUGUUUGGGCGGUUUGAATT against Snx15	active: -2.25
GGAUUAGAAUGUCAUGUCUTT against Ddx20	inactive: -1.28
CGACGAACGGGUAAAAGGUTT against Pcdha4	inactive: -0.207
GGGCGAUGAAGAAGAGAAATT against Smad1	inactive: -0.443
GCAUUCAAUGUUCUUAAGCTT against Tmc3	inactive: 0.845
GGCGACAGGUCCUGUAAUGTT against Ddx56	inactive: 0.891
GCGGAAUUUGGUUUCUAUUTT against Etv2	inactive: -0.432
GGACAUGAAAGAAACGGUGTT against Bbc3	inactive: -0.282
GUGCCUCUCAUCACUAUCUTT against Olfr571	inactive: 0.501
GGUUUGUAGACGACAAUCUTT against Insig1	inactive: -0.128
GGCCGAGUCAAGAAUCUUUTT against Tvp23b	inactive: 0.696
CAGCAUCAAGCAGAAAAGATT against Gm5458	inactive: -1.4
GCGACUGAACAUCAACGCATT against Ada	inactive: -0.862
GGACGACAUGAUUUUCGAGTT against Atp1b1	inactive: -0.399
UGCUUUGCAUCUGGCUGUATT against Hs3st3b1	inactive: -1.46
CGUCAUAAAGAAUAGUUCCTT against Ncoa4	inactive: 0.965
GGAAUCGUCUGAGAAAUUCTT against Lgmn	inactive: 1.44
CCCGGAGGCUUCAAAACAATT against Hsd17b2	inactive: -0.161

Sequence	z-score
CGUAGUGCGCUUCAUUCAATT against Ufsp2	inactive: 1.99
GGCGCAUGCUGGAUAAACATT against Dhx58	inactive: -1.14
GGAGCAAGUCAAGUCUCAUTT against Fcho2	inactive: 0.551
GAAGAUGACAACCAAACGCTT against Ucn3	inactive: 0.122
GGAAACAAUAAAUGUUCCCTT against Ldlrap1	inactive: -1.35
CCAAACAAUAGACAUGCUUTT against Npy1r	inactive: 0.178
GUCAACUUGCUGCCAAGACTT against Ifna2	inactive: 0.286
GGAAGAUGAUGUUUUAGGUTT against Pde7a	inactive: 0.271
GCAGUGAUUCAGUUAUAACTT against Gypc	inactive: -0.0354
GGGAAAAGGUCAGUGAAGUTT against Fam219b	inactive: -0.305
CGGUGUAAGUCUGGCUUUGTT against Tmem60	inactive: 1.2
GGAUGAAGACCUUGAACGGTT against Slc28a3	inactive: 1.48
GGCAGAGAUUGAGAGCAAGTT against Palm	active: 2.28
GCUUCAGCCAUUUCACCUUTT against Rnaseh2c	inactive: 0.108
GGUAACUAUGAAGAGAUCATT against Neu2	inactive: 0.312
CCAAACAGUUCACAAUUCCTT against Rrp8	inactive: -0.182
GGCCAUGUUCGAGCAAACUTT against Wdr70	inactive: -0.829
GGGCAGGUGGAUGUGGAAATT against Ryr2	inactive: 0.546
GGUUCAUUGUGUCUCUGGCTT against Grk1	inactive: -0.378
